# Data as given in patent US6436421B1, “Pesticide compositions” (priority 1997, dated 2002).
# Where two headings read alike, the source gives them in different places. For at least one compound, name, drawing or mass did not settle the structure.
# Assay type: physicochemical
# Procedure: One method to evaluate the efficacy of a pesticide adjuvant is to measure its affect on the ability of the pesticide composition to resist wash-off from a surface. One skilled in the art will recognize that a pesticide which remains on the surface of a plant will be expected to have increased efficacy.
# A suspension of the pesticide formulation was prepared by adding a premix of water and surfactant, with and without the polymer additives, followed by vigorous shaking of the mixtures by hand. Pieces of Parafilm™M laboratory film, a very soft, flexible, and hydrophobic film, were taped to plastic petrie dishes. The suspensions were sprayed with an automated sprayer as the petrie dishes with attached film were moved at a standard rate below the sprayer. The spray residues were allowed to dry, and a second application of spray was applied. One set of films was exposed, at an inclination of 45 degrees, to approximately 25 mm of water applied by a spray bar (equipped with TX-4 cone-type spray nozzles) that moved back and forth over the samples for a period of about 1 hour. The exposed films were allowed to dry. Another set of films was not exposed to water.
# Infra-red spectra of the films were obtained by an Attenuated Total Reflection (ATR) technique. The films were pressed against a Zinc Selenide crystal that had been cleaned previously with methanol. Spectra were recorded with a Spectratech Allied Systems Fourier Transform Infra-Red Spectrometer, and stored in a computer. Peaks associated with pesticide residue were identified by inspection and peak areas were calculated by computer (Pesticide Peak Area, “PA”). A corresponding area for a Parafilm™ peak as similar as possible in peak location and size (in the same spectrum) was calculated (Film Peak Area, “FA”). […] A measure of the pesticide on the surface “P” was derived from the following calculation:
# A relative measure of the amount of pesticide remaining after the above exposure to water was then derived from the following calculation: [formula]
# Although the intensity of spectral peaks recorded with the ATR technique are very dependent on details of contact with the film, by obtaining a ratio of the pesticide peak to the film peak in the same spectral recording, different spectra can be compared with details of contact being compensated for, since they will have similar effects on the intensity of the pesticide absorption and the film absorption. The intensity of the pesticide peak relative to the film peak will depend on the degree of coverage of the film by the pesticide. To maximize coverage, the spraying was conducted twice. Furthermore, a wetting agent (surfactant) was included in the premix to promote wetting of the film by the spray droplets. Since exposure to water can result in re-distribution of the pesticide as well as wash-off of the pesticide, the measure of the amount remaining is only relative.
# In all cases, a measured amount of pesticide was mixed with 270 grams of deionized water and 30 grams of 0.5% Silwet L-77 surfactant. This premix was divided into 50 gram portions. One portion was sprayed without adding polymer. For mixes containing polymer, 66.6 milligrams powder polymer or 1.32 g of a 5% solids dilution of the emulsion polymer were added to the 50 grams of premix.
# TX-2 nozzle 12 inches above laboratory film.
# 58 psi (delivers 150 cc/minute).
# Laboratory film moves at 1 mile/hour.
# Fan nozzle 14 inches above laboratory film. […]
structure (smiles),measurement,setting,value
"O=C1C2CC=CCC2C(=O)N1SC(Cl)(Cl)Cl (centres unmarked) [captan, N-trichloromethylthiotetrahydrophthalimide]","% AI Retained After One Inch Spray-Bar Rain, M (mean)",No Polymer,41%
same,"% AI Retained After One Inch Spray-Bar Rain, M (mean)",with Emulsion IV,69%
same,"% AI Retained After One Inch Spray-Bar Rain, M (mean)",with Powder I,75%
same,"% AI Retained After One Inch Spray-Bar Rain, M (mean)",with Powder II,68%
same,"% AI Retained After One Inch Spray-Bar Rain, M (mean)",with Powder III,51%
